Results of single-concentration screens

By UniProt entry, the sequences of proteins in these tests, tags left out. Residues count along the entry.
UniProt Q4DA54, 1-478: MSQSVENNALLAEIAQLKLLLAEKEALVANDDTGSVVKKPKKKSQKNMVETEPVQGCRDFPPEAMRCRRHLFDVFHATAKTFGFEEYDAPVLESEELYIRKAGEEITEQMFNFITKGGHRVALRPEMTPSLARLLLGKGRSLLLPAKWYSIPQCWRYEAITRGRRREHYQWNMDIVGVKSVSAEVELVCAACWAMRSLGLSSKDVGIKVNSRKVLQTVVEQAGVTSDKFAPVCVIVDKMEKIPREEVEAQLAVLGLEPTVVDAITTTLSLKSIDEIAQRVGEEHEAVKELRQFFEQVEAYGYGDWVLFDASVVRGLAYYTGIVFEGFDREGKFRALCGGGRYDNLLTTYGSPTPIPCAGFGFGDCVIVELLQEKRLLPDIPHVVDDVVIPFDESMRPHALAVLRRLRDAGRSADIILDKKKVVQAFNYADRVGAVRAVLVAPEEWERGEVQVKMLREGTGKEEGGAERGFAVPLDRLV
UniProt A4I591, 1-473: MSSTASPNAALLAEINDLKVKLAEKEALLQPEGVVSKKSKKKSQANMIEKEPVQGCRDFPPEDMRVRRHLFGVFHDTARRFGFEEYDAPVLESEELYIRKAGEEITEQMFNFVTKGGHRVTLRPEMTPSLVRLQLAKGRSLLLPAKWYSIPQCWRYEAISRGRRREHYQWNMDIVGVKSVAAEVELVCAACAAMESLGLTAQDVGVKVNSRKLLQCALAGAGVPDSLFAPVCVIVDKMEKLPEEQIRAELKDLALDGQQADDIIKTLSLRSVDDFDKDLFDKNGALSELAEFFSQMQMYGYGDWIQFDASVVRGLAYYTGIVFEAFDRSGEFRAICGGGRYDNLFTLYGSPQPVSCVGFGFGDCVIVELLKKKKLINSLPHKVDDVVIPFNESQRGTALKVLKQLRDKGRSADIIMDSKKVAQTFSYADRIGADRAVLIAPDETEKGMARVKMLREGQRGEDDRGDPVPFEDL

TcHisRS: 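Histidine-tRNA ligase, Trypanosoma cruzi CL Brener (UniProt Q4DA54). Enzyme assay of histidyl-tRNA synthetase; the read-out is not stated. Compounds at 30 µM. Direction is inferred from retests: higher values go with stronger inhibition. Size under these conditions: about 69,000 compounds, about 31 of them at 50% or above in at least one test.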
LiHisRS: 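Enzyme assay of histidyl-tRNA synthetase; the read-out is not stated. Target: Histidine-tRNA ligase, Leishmania infantum (UniProt A4I591). Compounds at 30 µM. The record gives no direction; compounds that gave an IC50 in retests scored well above the rest, so higher reads as stronger inhibition. The assay is labelled LdHisRS but filed under L. infantum. Size under these conditions: about 69,000 compounds, about 410 of them at 50% or above in at least one test.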

Each number is a percent effect as filed. The record does not define 0% and 100%; most values in the screen are far below 50% and negative numbers occur (in some assays of this library far below -100). This is an unselected part of the compounds tested.

Compound | TcHisRS | LiHisRS
Cc1noc(C)c1CN1CC2(CCN(C(=O)c3c[nH]cn3)C2)CC1=O (stereo not given) | -1.622% | 15.09%
CCCn1nc2c(cc1=O)CN(CCS(C)(=O)=O)CC2 | 6.015% | 40.48%
O=C(c1cc(Cl)c[nH]1)N1CCCC(c2cc(C(F)(F)F)[nH]n2)C1 (stereo not given) | 1.734% | 0.8772%
Cn1cnc(S(=O)(=O)N2CCOCC2)c1Cl | 5.911% | 23.29%
COc1ccc(-c2nc(C(=O)NCC3CCOC3)cs2)cc1OC (stereo not given) | 2.874% | 6.957%
CN1CCCN(C(=O)c2ccn3ccnc3c2)CC1 | 3.867% | 14.46%
Cc1ncc2c(n1)CN(CC(=O)Nc1nnc(C)s1)CC2 | 6.358% | 13.39%
O=C(NS(=O)(=O)c1ccc(F)cc1)C1CCOc2ccccc21 (stereo not given) | 3.226% | 7.071%
CSc1ccsc1C(=O)NS(=O)(=O)c1cnn(C)c1 | -1.961% | 14.4%
CNC(=O)c1cccc(NC(=O)NCc2ccccc2)c1C | 3.896% | 8.333%
CC(C)(O)CN1CCN(C(=O)COCC(F)(F)F)CC1 | 4.938% | 19.35%
COc1ccc(OC2CCN(C(=O)c3cnc(C)s3)CC2)cc1 | 13.1% | 15.5%
CN(Cc1nc(Cc2cccc(C(F)(F)F)c2)no1)C1CCCCC1 | -4.478% | 11.19%
Cc1cc(NC(C)C(=O)N2CCN(c3ncccn3)CC2)ccc1F (stereo not given) | 2.956% | 34.25%
Cc1cccc(C(=O)N2CCCC(Cc3cncc4ccccc34)C2)n1 (stereo not given) | 9.886% | 17.24%
CN(Cc1ncnn1C)c1ccnc(Cc2ccccc2)n1 | 17.92% | 23.4%
CN(Cc1ccc(-n2cccn2)cc1)Cc1ncc[nH]1 | 2.618% | 4.301%
CC(C)COC(=O)N1CCCN(C(C)c2nnc(CC(C)C)o2)CC1 (stereo not given) | 3.867% | 6.25%
COc1ccccc1NC(=O)NCCCn1nc2ccccn2c1=O | 3.198% | 9.649%
O=C(c1ccnnc1)N1C[C@H]2CCC[C@@]2(COCc2ccccn2)C1 | 14.29% | 6.422%
Cc1noc(C)c1C(=O)N1CCC(c2[nH]ncc2S(C)(=O)=O)C1 (stereo not given) | 4.396% | 15.94%
COc1cccc(N2CCN(Cc3cccc(CCN)c3)CC2=O)c1 | 29.65% | 60.67%
CC(=O)N(C)Cc1ccc(OCc2cccs2)cc1 | 3.665% | 1.724%
Cc1ccc(CC(=O)N2CCN(C3CCOC3=O)CC2)cc1 (stereo not given) | 4.942% | 9.649%
CCc1cc(CNC(=O)N2Cc3ccccc3N(C)CC2C)on1 (stereo not given) | 3.665% | 17.24%
Cc1nn(CCNc2ncnc3c2NC(=O)CN3)c(C)c1Cl | 1.242% | -2.5%
O=C(c1cnco1)N1CCCC(Cc2nccs2)C1 (stereo not given) | 2.151% | 20%
CNC(=O)CN1CCOCC2(CCCN(Cc3cccnc3)C2)C1 (stereo not given) | 4.813% | 3.846%
CCC(=O)N1CCCCC1c1nc(O)c2c(n1)CN(C(C)=O)CC2 (stereo not given) | -0.3831% | 10.07%
Cc1nc(N(C)C)nc(C)c1NS(=O)(=O)c1ccccc1Cl | 7.772% | 2.151%
Cc1cnn(CC2CCCN2Cc2cc(=O)n3ccccc3n2)c1 (stereo not given) | 4.237% | 16.98%
O=C(Cc1c(F)cccc1Cl)Nc1cccc(N2CCCC2)c1 | 1.587% | 28%
Cn1cc(CN2CCc3c(nc(-c4ccccn4)[nH]c3=O)C2)cn1 | -0.5464% | 9.489%
CCc1cnc(CN2CCC(N(C)Cc3noc(C4CC4)n3)C2)o1 (stereo not given) | 5.703% | -6.25%
CC(C)C(NC(N)=O)C(=O)N1CCN(c2ccccc2Cl)C(=O)C1 (stereo not given) | 6.358% | 0%
O=C(c1cccnc1O)N(CCO)Cc1cc(Br)ccc1F | 8.247% | 18.68%
c1cc(-c2nnc([C@H]3CCN(C4CCOCC4)C3)o2)ccn1 | -3.261% | 14.86%
Cc1ncccc1C(=O)NCC(C)Oc1ccc(F)cc1 (stereo not given) | 0% | 14.16%
CC1CN(C)CCN1C(=O)c1cnc2c(cnn2C2CCCC2)c1 (stereo not given) | 5.814% | 10.71%
CCN(Cc1ccncc1)C1CCN(c2ccccc2)C1=O (stereo not given) | 2.762% | 5.181%
O=C(c1cc[nH]n1)N1CCCC1c1cc(Nc2ccccn2)n[nH]1 (stereo not given) | 3.802% | 10.34%
N[C@H]1CN(S(=O)(=O)Cc2ccccc2)C[C@@H]1C1CC1 | 0.5291% | 22.67%
COCCN1CCC(CNC(=O)c2cc(C)cc(C)c2)C1 (stereo not given) | 6.061% | 16.67%
CC(=O)N(C)c1nc(CN2CCCC2Cn2cncn2)cs1 (stereo not given) | 13.79% | 20.87%
O=C(c1ccccc1)N1CCC[C@]2(C[C@@H](OCc3ccccn3)CO2)C1 | 11.76% | 26%
N#Cc1ccc(N2CCC3(CC2)CC(OCc2cccnc2)CO3)cc1 (stereo not given) | 7.527% | 33.33%
CCN1c2ccc(-c3cncn3CCCn3ccnc3C)cc2CC1C (stereo not given) | 20.29% | 48.32%
CC1CCC(NC(=O)CNC2(c3ccc(Br)cc3)CCOCC2)CC1 (stereo not given) | 3.097% | 25.66%
O=C(c1ccsc1)N1CCN2C[C@H](OCc3cccnc3)C[C@H]2C1 | 0.5464% | 10.95%
Cc1noc([C@H]2COC[C@H]3CN(C(=O)Cc4ccc(F)cc4)C[C@H]32)n1 | -3.743% | 9.615%
CC1CCCN(CCNC(=O)c2cncnc2C(C)C)C1 (stereo not given) | 6.504% | 24.04%
CCn1c(C)cc(C(=O)N2CCCC(C(=O)c3nccn3C)C2)c1C (stereo not given) | -2.4% | -4.425%
COC(=O)CCCn1ccnc1-c1ccccc1 | 6.557% | 19.18%
Cc1ccsc1CN(C)C(=O)c1ccc(N2CCOCC2)c(F)c1 | 2.717% | 0%
Cc1ccc2c(ccn2CCC(=O)O)c1 | 0.8475% | 9.434%
O=C(NCc1ccco1)[C@@H]1CCO[C@@H]2CCN(C3CCOCC3)C[C@H]21 | 4.202% | -0.9174%
Cc1cc(C)c(OCC(=O)NS(=O)(=O)c2c(C)noc2C)c(C)c1 | 0.7634% | 19.15%
Cc1ccccc1CNC(=O)c1ccccc1-n1cnc(CN)c1 | 12.22% | 20.62%
CCCc1nc(C(C)(C)NC(=O)C2CC(=O)N(C3CCCC3)C2)no1 (stereo not given) | 2.924% | 18.18%
O=C(NCCNc1cnccn1)N1CC=C(c2ccc(O)cc2)CC1 | 2.041% | 13.89%
CNC(=O)c1cccc(NC(=O)CN2CCCN(S(C)(=O)=O)CC2)c1 | 6.736% | 19.35%
Cc1cccc(OCCSCCn2nc3ccccn3c2=O)c1 | 9.278% | 7.692%
C[C@H]1C(=O)NC[C@H]2CN(Cc3ccccc3)C[C@H]21 | 1.504% | 14.63%
CCC(CNC(=O)Nc1cnn(CC)c1)N1CCc2ccccc2C1 (stereo not given) | 4.956% | 7.965%

From ChEMBL document CHEMBL3988442, “University of Dundee, Small-Polar-MMV Screening Library” (2021).